# Earlier results, collected in US20210113456A1, “PHARMACEUTICAL COMPOSITIONS OF RAMELTEON AND METHODS OF USE THEREOF” (MAXINASE LIFE SCIENCES LIMITED, priority 2017, published 2021).
# The name of at least one read-out is uncertain.
# Conditions: cited from earlier work
smiles,measurement,setting,value
CCC(=O)NCC[C@@H]1CCc2ccc3c(c21)CCO3 [ramelteon],effect of other CYP450 inhibitors or inducers on AUC and Cmax,"rifampin, ketoconazole, fluconazole, donepezil and doxepin, human trials",significantly alter
same,food effect on AUC and Tmax,with food,higher AUC but delayed time to Cmax
